Experimental data from article doi:10.1101/2022.03.07.483334.
These are yes or no findings as the source states them, for the method shown. Binding seen in cells or lysates may run through a third protein. A yes stands for co-enrichment or nearness to the bait. Other partners may have been found.

Chains of the proteins cited; added tags and fusions are not shown. Lines headed by an entry give the natural chain unless they say otherwise; changes in a name come on top.
UniProt Q01196: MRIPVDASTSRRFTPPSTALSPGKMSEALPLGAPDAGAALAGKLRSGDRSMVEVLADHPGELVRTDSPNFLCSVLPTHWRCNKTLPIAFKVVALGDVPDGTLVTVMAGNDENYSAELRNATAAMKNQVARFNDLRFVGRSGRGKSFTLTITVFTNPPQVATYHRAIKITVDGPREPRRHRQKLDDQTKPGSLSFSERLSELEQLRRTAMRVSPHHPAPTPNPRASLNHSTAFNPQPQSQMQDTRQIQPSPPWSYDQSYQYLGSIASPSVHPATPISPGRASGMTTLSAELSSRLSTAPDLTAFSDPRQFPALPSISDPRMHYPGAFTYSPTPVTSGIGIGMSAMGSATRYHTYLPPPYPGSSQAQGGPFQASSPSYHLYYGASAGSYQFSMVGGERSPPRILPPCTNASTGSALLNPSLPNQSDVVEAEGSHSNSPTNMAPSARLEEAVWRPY
UniProt P61244: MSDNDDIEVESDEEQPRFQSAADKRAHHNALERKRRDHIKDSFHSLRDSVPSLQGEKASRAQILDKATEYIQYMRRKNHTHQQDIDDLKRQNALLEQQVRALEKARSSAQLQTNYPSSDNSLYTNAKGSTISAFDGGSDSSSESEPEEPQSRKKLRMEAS

Molecular target: HA-tagged RUNX1A (doxycycline-inducible, in CMK cells) (human) (UniProt Q01196)
Experiment: affinity purification with mass spectrometry

MAX (in CMK cells) (from UniProt P61244 1-160)
binding: binds
